According to patent US10562864B2, “Chemical modulators of immune checkpoints and therapeutic use” (Duke University, priority 2015, dated 2020):
For at least one compound, name, drawing or mass did not settle the structure.

System: PD-1
Assay: Western blot analysis of PD-1 protein level in 4T1 cells stably expressing PD-1
Assay type: cell-based, murine
Conditions: 4T1-PD1 cells, FIG. 13
Experimental: Murine breast cancer cells were grown in DMEM medium supplemented with 10% FBS and penicillin and streptomycin antibiotics at 37° C. in 5% CO2.
4T1 Murine breast cancer cells stably expressing PD1 were seeded in 12-well plates (30 k cells/well) and incubated overnight. […] Cells were lysed with SDS sample buffer and lysates were subjected to western blot analysis
4T1-PD1 cells were seeded in 12-well plates (100 k cells/well) overnight. On the next day, compounds were added and the cells incubated for 4 days. The cells were then lysed in SDS sample buffer and lysates were subjected to western blot analysis

COc1ccc2cc1Oc1ccc(cc1)C[C@H]1c3cc(c(OC)cc3CCN1C)Oc1c(OC)c(OC)cc3c1[C@H](C2)N(C)CC3 [tetrandrine]
PD-1 protein levels by western blot after 4 days: lower PD-1 protein levels
